Assay results published in article PMC11019928.

Biological target: T1, VitR (His-VitR) (Chromobacterium violaceum) (UniProt Q7NZ65)
T1 sequence (looked up): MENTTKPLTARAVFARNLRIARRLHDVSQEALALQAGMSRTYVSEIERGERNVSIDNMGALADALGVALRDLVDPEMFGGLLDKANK
Experiment: EMSA
Conditions: shift starts at 10 nM VitR, complete at 25 nM, 0.1 mg/mL salmon sperm DNA, 10 mM Tris-HCl pH 7.5, 40 mM KCl, 1 mM MgCl2, 0.1 mg/mL BSA, 1 mM DTT, 5% glycerol, 20 uL, 25 C 25 min, native 5% PAGE in TB, recombinant protein, residues 1-87, protein details: N-terminal His-tag (pET15b), label: 32P (5' end, T4 PNK), probe letters rebuilt from the primers and the genome

Sequence: GGCCTAGGATCCCGTTGTGTTTTCCATACCCCGATAGCATCAGCGCTTGCTAGCGCTCAAGCCACGCGGTATGATTTGCAAAATGTTAACTATAAGTGACTTTTTGATTTTTATTGATATCTTCATGACACTCATTATGTGCTATGCGCTGCTCTGACGGCCACACATGGAGGTGCTTATGCAGAAAATTCCCATTCCGTGATCTACGGCGTTTTCCCGCTACCGCTCTGCCTTGACCATATCCAGAGCCTTGTCCGCCCAACCATCGCAAGGTTCAAACACAATGAGGGTTTTGCCATGCCTAGCATCACCCGCAGTTCGTCTCATCTCGCGGAATTCGCTAGG (double strand) [vioS/vitR intergenic promoter region (specific probe)]
- binding result: binds

Protein sequences can lack the tags named with them.
